Source: article PMC13429693, “Disease-associated genetic variants can cause missense effects in tissue-specific protein isoforms” (Nature Communications, 2026)
Results are given in words; binding and its absence hold for the method and conditions named. In cells and extracts the contact can be indirect. Some entries that bind do so weakly or less than the wild type. Where a sequence is shown, tags or fusion partners need not be part of it.

Biological target: DPP9-short-YFP (human), Q86TI2
Experiment: co-IP; HEK293T cells co-transfected with YFP-tagged DPP9 isoforms and NLRP1-Flag; NP-40 lysis buffer (50 mM Tris-HCl pH 7.4, 150 mM NaCl, 1% NP-40, 5 mM EDTA); GFP-Trap magnetic agarose beads overnight at 4 °C; blots with α-GFP and α-Flag
Conditions: remark: other sources report otherwise

binding: binds
B1: NLRP1-Flag, Q9C000 1-1473 (protein)
chain: MAGGAWGRLACYLEFLKKEELKEFQLLLANKAHSRSSSGETPAQPEKTSGMEVASYLVAQYGEQRAWDLALHTWEQMGLRSLCAQAQEGAGHSPSFPYSPSEPHLGSPSQPTSTAVLMPWIHELPAGCTQGSERRVLRQLPDTSGRRWREISASLLYQALPSSPDHESPSQESPNAPTSTAVLGSWGSPPQPSLAPREQEAPGTQWPLDETSGIYYTEIREREREKSEKGRPPWAAVVGTPPQAHTSLQPHHHPWEPSVRESLCSTWPWKNEDFNQKFTQLLLLQRPHPRSQDPLVKRSWPDYVEENRGHLIEIRDLFGPGLDTQEPRIVILQGAAGIGKSTLARQVKEAWGRGQLYGDRFQHVFYFSCRELAQSKVVSLAELIGKDGTATPAPIRQILSRPERLLFILDGVDEPGWVLQEPSSELCLHWSQPQPADALLGSLLGKTILPEASFLITARTTALQNLIPSLEQARWVEVLGFSESSRKEYFYRYFTDERQAIRAFRLVKSNKELWALCLVPWVSWLACTCLMQQMKRKEKLTLTSKTTTTLCLHYLAQALQAQPLGPQLRDLCSLAAEGIWQKKTLFSPDDLRKHGLDGAIISTFLKMGILQEHPIPLSYSFIHLCFQEFFAAMSYVLEDEKGRGKHSNCIIDLEKTLEAYGIHGLFGASTTRFLLGLLSDEGEREMENIFHCRLSQGRNLMQWVPSLQLLLQPHSLESLHCLYETRNKTFLTQVMAHFEEMGMCVETDMELLVCTFCIKFSRHVKKLQLIEGRQHRSTWSPTMVVLFRWVPVTDAYWQILFSVLKVTRNLKELDLSGNSLSHSAVKSLCKTLRRPRCLLETLRLAGCGLTAEDCKDLAFGLRANQTLTELDLSFNVLTDAGAKHLCQRLRQPSCKLQRLQLVSCGLTSDCCQDLASVLSASPSLKELDLQQNNLDDVGVRLLCEGLRHPACKLIRLGLDQTTLSDEMRQELRALEQEKPQLLIFSRRKPSVMTPTEGLDTGEMSNSTSSLKRQRLGSERAASHVAQANLKLLDVSKIFPIAEIAEESSPEVVPVELLCVPSPASQGDLHTKPLGTDDDFWGPTGPVATEVVDKEKNLYRVHFPVAGSYRWPNTGLCFVMREAVTVEIEFCVWDQFLGEINPQHSWMVAGPLLDIKAEPGAVEAVHLPHFVALQGGHVDTSLFQMAHFKEEGMLLEKPARVELHHIVLENPSFSPLGVLLKMIHNALRFIPVTSVVLLYHRVHPEEVTFHLYLIPSDCSIRKAIDDLEMKFQFVRIHKPPPLTPLYMGCRYTVSGSGSGMLEILPKELELCYRSPGEDQLFSEFYVGHLGSGIRLQVKDKKDETLVWEALVKPGDLMPATTLIPPARIAVPSPLDAPQLLHFVDQYREQLIARVTSVEVVLDKLHGQVLSQEQYERVLAENTRPSQMRKLFSLSQSWDRKCKDGLYQALKETHPHLIMELWEKGSKKGLLPLSS
